Assay results taken from PMC5562708.
Results are given in words; binding and its absence hold for the method and conditions named. Binding seen in cells or lysates may run through a third protein. Some binding calls cover weakened binding; strength is not graded here. For some assays here: Sequences can lack the tags named with a protein.

Chains of the proteins cited; added tags and fusions are not shown. Residues count along the entry.
UniProt Q13873, residues 27-1038: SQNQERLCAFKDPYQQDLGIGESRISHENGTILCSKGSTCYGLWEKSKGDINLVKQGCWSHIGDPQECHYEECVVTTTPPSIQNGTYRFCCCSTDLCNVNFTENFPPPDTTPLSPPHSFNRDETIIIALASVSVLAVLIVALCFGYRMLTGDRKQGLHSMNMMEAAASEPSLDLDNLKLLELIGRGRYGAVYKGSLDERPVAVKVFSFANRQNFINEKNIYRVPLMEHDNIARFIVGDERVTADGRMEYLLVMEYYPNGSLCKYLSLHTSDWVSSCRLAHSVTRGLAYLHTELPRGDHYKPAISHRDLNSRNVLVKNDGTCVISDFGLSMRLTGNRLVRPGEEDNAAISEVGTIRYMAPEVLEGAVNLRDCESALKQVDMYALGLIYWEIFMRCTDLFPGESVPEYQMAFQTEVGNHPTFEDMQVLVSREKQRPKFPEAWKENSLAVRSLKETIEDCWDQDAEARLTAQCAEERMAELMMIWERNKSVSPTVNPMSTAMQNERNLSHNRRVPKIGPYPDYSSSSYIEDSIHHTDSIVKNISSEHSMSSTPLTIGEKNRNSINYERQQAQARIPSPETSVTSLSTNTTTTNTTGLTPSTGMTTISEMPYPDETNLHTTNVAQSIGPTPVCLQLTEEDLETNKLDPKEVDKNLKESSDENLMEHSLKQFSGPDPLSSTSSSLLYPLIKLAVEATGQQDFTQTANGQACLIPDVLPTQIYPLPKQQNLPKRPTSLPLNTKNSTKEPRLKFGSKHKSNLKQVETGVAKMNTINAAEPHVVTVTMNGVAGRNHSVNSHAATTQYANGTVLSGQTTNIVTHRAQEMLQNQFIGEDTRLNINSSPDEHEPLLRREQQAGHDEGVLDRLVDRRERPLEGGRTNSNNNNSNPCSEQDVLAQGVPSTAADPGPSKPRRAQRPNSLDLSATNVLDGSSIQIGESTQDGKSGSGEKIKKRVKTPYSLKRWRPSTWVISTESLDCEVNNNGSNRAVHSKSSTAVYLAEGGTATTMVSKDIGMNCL

How the values were obtained:
[1] = biological target: T1, IRS4 A1174 truncation (myc-tagged) (mouse) (UniProt Q9Z0Y7); assay: co-IP; transfected HEK293T cells, lysed directly or starved 6 h and stimulated with 10 nM BMP2; RIPA or TNE buffer; IP with anti-myc (9E10) or anti-IRS4 antibody overnight, protein A sepharose; Western blot
T1 sequence: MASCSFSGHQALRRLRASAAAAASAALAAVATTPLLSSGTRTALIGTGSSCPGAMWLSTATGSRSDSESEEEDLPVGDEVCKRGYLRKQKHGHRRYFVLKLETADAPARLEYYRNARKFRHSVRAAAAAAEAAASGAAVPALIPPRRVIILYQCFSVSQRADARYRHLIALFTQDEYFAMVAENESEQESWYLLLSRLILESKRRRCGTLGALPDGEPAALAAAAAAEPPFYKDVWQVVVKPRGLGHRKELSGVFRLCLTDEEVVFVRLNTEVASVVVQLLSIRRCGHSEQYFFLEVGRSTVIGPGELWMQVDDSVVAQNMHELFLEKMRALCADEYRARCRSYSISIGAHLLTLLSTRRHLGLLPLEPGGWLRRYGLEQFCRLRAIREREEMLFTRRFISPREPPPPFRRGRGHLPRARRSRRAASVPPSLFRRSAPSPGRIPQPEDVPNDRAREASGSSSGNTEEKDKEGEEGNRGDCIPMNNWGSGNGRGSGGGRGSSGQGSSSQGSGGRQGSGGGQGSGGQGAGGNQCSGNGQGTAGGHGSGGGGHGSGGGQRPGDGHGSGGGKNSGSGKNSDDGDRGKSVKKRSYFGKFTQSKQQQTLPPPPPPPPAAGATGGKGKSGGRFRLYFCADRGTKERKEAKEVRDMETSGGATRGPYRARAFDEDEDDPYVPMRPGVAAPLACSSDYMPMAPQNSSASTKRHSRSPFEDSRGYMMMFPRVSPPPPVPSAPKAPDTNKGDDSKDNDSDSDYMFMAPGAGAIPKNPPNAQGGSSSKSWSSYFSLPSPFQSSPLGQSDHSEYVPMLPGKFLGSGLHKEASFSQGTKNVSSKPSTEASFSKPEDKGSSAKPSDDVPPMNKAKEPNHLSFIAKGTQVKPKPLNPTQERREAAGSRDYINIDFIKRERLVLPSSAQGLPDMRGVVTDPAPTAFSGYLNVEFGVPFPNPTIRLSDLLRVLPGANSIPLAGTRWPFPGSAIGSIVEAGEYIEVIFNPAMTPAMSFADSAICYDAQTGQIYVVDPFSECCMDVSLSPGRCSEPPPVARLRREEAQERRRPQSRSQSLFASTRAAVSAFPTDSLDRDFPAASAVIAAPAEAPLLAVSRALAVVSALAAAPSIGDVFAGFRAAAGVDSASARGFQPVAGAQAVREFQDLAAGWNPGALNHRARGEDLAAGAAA

[2] = biological target: T2, endogenous IRS4 (HEK293T) (human (endogenous in HEK293T)) (UniProt O14654); assay: as above
T2 sequence: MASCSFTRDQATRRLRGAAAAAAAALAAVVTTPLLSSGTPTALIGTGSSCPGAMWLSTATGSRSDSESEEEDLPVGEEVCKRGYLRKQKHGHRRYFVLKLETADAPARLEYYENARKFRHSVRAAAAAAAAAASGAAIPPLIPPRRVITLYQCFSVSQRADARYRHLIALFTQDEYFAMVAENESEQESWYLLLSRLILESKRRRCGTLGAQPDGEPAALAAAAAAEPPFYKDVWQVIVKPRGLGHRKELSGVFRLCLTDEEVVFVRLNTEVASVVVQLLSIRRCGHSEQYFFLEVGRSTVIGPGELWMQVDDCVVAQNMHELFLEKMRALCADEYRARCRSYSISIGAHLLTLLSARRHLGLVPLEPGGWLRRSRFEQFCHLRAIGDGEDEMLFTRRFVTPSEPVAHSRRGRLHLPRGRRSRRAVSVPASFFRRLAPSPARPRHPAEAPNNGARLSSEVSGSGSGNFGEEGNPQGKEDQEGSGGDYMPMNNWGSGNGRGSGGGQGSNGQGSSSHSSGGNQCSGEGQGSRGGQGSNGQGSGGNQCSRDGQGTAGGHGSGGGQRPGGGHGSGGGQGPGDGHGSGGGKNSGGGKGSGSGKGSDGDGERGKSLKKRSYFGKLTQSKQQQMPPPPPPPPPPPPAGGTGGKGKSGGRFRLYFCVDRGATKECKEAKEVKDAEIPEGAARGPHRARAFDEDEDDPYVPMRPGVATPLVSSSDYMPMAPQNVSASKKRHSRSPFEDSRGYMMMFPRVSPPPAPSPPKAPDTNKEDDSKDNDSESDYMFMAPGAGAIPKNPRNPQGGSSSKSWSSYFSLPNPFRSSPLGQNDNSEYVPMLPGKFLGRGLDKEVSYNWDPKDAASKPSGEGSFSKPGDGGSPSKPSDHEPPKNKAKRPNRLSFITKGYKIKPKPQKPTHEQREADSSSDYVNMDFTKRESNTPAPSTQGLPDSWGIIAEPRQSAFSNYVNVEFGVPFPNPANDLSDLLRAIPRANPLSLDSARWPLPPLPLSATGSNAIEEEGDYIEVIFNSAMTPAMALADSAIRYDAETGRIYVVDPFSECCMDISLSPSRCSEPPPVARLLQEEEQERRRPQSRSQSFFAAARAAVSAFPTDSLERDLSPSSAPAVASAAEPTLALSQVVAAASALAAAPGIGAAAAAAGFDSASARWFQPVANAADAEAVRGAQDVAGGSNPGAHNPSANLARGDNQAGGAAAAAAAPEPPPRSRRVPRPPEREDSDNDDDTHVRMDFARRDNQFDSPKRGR

Substance: HA-tagged BMPRII long form (HA-BMPRII-LF) (from UniProt Q13873 27-1038) (receptor)
- binding [1]: binds
- binding [2]: binds
